Test results from patent US7638482B2, “Protein kinase C zeta as a drug target for arthritis and other inflammatory diseases” (Wyeth, priority 2003, dated 2009).
At least one compound was matched to its structure with a doubt left.

Tested on: NF-κB
Assay: NF-κB luciferase reporter assay in immortalized human chondrocyte cell line C28/I2
Format: cell-based
Conditions: CC 8 μM; TNFα 1 or 10 ng/ml; C28/I2 cells; inhibitor added 2 hrs before TNF; FIG. 8
Protocol: Activation of NF-κB was measured in an immortalized human chondrocyte cell line (C28/I2; see, e.g., Finger et al. (2003) Arthritis Rheum. 48:3395-403; Goldring (1994) J. Clin. Invest. 94:2307-16) into which a luciferase reporter gene under the control of an NF-κB response element was introduced. The cells were cultured in DMEM/Ham's F12 supplemented with 10% FBS; the cells were split into 96 wells (1×10^5 cells/well) and infected with adenovirus expressing NF-κB luciferase construct (100 MOI) 24 hrs prior to assay. The chondrocytes were incubated with inhibitors in serum-free media 2 hrs prior to the addition of TNF. […] BIS (20 μM), a pan-PKC inhibitor, was added to some cultures, and CC (8 μM), a competitive inhibitor of the phorbol ester binding site in some forms of PKC (but not the a typical PKCs, e.g., ζPKC), was added to other cultures.

COc1ccc2c(c[n+](C)c3c4cc5c(cc4ccc23)OCO5)c1OC [CC, chelerythrine chloride]
TNFα-mediated activation of NF-κB (relative luciferase activity): not blocked
